These are yes or no findings as the source states them, for the method shown. Some entries that bind do so weakly or less than the wild type.
Experiments:
BMP10 = biological target: T1, BMP10 (UniProt O95393); assay: Biacore SPR; complex captured by anti-Fc antibody, ligand injected
T1 sequence (looked up): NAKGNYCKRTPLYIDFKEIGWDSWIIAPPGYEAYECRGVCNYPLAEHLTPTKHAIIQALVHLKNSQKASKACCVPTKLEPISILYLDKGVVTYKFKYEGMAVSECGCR

Sequences of proteins named here, by UniProt entry; tags and fusion partners are left off. A change or cut given only in a name is not applied to a line headed by its entry.
UniProt P37023: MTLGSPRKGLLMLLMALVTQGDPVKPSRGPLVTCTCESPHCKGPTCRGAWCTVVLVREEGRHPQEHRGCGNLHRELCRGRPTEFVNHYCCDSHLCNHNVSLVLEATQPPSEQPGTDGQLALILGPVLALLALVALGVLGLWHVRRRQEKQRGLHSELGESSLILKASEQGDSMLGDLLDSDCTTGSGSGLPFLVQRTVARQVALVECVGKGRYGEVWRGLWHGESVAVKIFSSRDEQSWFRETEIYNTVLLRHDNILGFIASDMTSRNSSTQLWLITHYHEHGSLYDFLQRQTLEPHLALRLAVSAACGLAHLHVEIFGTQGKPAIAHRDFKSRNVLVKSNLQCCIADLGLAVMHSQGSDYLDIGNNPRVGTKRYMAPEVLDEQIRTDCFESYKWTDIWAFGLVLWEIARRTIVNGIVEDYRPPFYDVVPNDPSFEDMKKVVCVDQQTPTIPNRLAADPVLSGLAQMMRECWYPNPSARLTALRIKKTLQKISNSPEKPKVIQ

BMP9 = biological target: T2, BMP9 (UniProt Q9UK05 320-429); assay: as above
T2 construct: Ligand injected over the captured receptor protein
T2 sequence (looked up): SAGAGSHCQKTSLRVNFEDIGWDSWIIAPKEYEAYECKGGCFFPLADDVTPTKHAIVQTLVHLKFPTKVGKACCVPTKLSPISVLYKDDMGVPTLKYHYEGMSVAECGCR

## ALK1-Fc:ALK1-Fc homodimer (from UniProt P37023 22-118) (Fc fusion)
BMP10
  binding: binds
BMP9
  binding: binds

— patent publication US20200071382A1 (published 2020)
